Data reported in patent US20080064632A1, “Combination Therapy for the Treatment of Obesity” (priority 2004, published 2008).

Tested on: DIO mice
Assay: Combination of PYY3-36 and CB-1 inverse agonist AM-251 on food intake and bodyweight in DIO mice (Example 2)
Format: in vivo, Male C57BL6 mice
Settings: PYY3-36 1 mpk (IP), AM251 1 mpk (PO), alone or co-administered

**Q.** With `Cc1c(C(=O)NN2CCCCC2)nn(-c2ccc(Cl)cc2Cl)c1-c1ccc(I)cc1` [AM251] as the compound, how does the “4-hour FI” value read?
**A.** Its value is −42%.

**Q.** What about the “16-hour FI” value of the same compound?
**A.** Its value is −23%.
